Some of these results come from one statement about several compounds together.
Tested on: C38 adenocarcinoma of the colon
Experiment: Anti-tumour activity with respect to C38 adenocarcinoma of the colon in mice
Assay type: in vivo
Details: C38, stated jointly for compounds 7 and 8 (100 minus T/C of Table 3)
Experimental: Tumour fragments of C38 adenocarcinoma of the colon weighing approximately 30 mg were implanted under the skin of B6D2F1 mice (Iffa Credo, France) on day 0.
After growth of the tumour, the mice were divided into control (18 animals) and treated (6 or 7 animals) groups, which were homogeneous with respect to tumour size. The products were administered by the i.v. route once per week for 3 weeks (on days 10, 17 and 24), at their Maximum Tolerated Dose (MTD), MTD/2 and MTD/4. The tumours were measured twice a week and the tumour volumes were calculated according to the following formula: volume (mm^3)=length (mm)×breadth (mm^2)/2. The anti-tumour activity is expressed as % T/C:
[formula] V0 and Vt being the initial volume of the tumour and its volume at measurement time t, respectively.
The optimum dose is the dose giving the lowest T/C value without toxicity (early death or weight loss greater than 20%).
The procedure used in the anti-tumour activity with respect to C38 adenocarcinoma is the same as the procedure described in the present application at Example 28.

In the case of “(±)-cis-1,2-Dipentenoyloxy-6-methoxy-3,3,14-trimethyl-2,3,7,14-tetrahydro-1H-benzo[b]pyrano[3,2-h]acridin-7-one [Example 7]”, the “inhibition of the growth of C38 colon adenocarcinoma” value is reported as 85–88%.

— patent publication US7056929B2, “Benzo[b]pyrano[3,2-h]acridin-7-one compounds” (Les Laboratoires Servier, priority 2001, dated 2006)
